From the supplement of paper PMC6411743
± gives the standard deviation of the averaged measurements. The list shows a part of the results.

By UniProt entry, the sequences of proteins in these tests, tags left out. Where a name states a change or a piece, a line headed by the entry shows the natural chain unless it says otherwise.
UniProt Q6PH81: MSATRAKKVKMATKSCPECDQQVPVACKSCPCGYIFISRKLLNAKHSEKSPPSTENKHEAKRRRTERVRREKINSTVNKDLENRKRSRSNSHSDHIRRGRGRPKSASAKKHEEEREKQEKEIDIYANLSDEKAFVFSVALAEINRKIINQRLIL
UniProt O60291: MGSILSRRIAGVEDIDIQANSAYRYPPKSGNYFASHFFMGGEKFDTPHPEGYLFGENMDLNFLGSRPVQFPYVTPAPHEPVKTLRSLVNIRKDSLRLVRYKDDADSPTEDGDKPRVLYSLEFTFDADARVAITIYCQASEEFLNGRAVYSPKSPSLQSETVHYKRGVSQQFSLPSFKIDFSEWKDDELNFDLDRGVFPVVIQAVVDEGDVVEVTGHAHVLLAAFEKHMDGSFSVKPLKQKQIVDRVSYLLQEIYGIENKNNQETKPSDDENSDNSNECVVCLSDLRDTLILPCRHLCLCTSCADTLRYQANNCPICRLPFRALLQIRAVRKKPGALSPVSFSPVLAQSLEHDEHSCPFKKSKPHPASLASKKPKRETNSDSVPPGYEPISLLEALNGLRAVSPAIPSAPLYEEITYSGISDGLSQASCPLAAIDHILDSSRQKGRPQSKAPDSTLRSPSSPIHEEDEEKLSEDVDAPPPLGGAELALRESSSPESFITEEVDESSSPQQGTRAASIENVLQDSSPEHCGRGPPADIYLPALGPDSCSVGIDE
UniProt Q6WCQ1: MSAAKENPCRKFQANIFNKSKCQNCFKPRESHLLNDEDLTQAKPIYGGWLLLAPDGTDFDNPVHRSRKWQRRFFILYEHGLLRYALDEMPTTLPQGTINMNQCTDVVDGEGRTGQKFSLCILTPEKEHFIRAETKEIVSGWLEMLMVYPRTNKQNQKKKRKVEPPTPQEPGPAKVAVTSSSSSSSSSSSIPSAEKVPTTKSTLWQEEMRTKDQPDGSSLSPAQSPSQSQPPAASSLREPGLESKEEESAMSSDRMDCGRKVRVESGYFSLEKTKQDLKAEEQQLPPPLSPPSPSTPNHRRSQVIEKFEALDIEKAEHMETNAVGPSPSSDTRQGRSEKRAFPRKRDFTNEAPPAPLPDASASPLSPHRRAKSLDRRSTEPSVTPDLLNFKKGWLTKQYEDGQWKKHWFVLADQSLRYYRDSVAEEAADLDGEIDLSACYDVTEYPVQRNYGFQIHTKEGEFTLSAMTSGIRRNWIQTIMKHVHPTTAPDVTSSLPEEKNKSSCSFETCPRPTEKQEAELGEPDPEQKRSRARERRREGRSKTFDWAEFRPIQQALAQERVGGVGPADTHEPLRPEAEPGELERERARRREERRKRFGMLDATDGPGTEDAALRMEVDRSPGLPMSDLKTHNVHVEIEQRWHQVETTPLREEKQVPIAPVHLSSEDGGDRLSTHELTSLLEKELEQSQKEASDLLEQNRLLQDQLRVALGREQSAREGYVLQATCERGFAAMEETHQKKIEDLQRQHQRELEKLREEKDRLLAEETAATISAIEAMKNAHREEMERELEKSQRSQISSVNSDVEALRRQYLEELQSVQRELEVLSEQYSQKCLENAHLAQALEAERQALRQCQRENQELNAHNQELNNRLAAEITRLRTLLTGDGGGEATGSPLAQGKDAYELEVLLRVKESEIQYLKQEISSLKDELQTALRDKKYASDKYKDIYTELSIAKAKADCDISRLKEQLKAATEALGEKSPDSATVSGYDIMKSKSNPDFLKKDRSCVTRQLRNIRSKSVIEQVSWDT

Compound: Nc1nc2c(ncn2[C@@H]2O[C@H](COP(=O)(O)OP(=O)(O)OP(=O)(O)O)[C@@H](O)[C@H]2O)c(=O)[nH]1 [guanosine triphosphate]
Test: NP40-soluble protein abundance relative to vehicle (solubility fold change) (ratio); higher = more soluble protein in presence of GTP
Method: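 Solubility proteome profiling in Jurkat crude lysate. Lysate was treated with Mg-GTP (0.1-10 mM) for 10 min at room temperature and 3 min at 37 °C, then solubilised with 0.8% NP40 and benzonase, followed by ultracentrifugation. Proteins were quantified by TMT10 LC-MS/MS; the value is the NP40-soluble abundance relative to the NP40-processed vehicle, from 3 independent experiments.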

Row | Target | NP40-soluble protein abundance (concentration: 0.1mM) | NP40-soluble protein abundance (concentration: 0.5mM) | NP40-soluble protein abundance (concentration: 1mM) | NP40-soluble protein abundance (concentration: 2mM) | NP40-soluble protein abundance (concentration: 4mM) | NP40-soluble protein abundance (concentration: 6mM) | NP40-soluble protein abundance (concentration: 8mM) | NP40-soluble protein abundance (concentration: 10mM)
1 | I3L0L6 and related entries (UniProt Q9H6Y7) | 1.04 ± 0.035 | 0.892 ± 0.08 | 1.08 ± 0.07 | 0.986 ± 0.056 | 1.05 ± 0.051 | 0.97 ± 0.027 | 0.999 ± 0.079 | 0.94 ± 0.021
2 | H3BQL3 and related entries (UniProt Q6PH81) | 0.905 ± 0.086 | 0.839 ± 0.068 | 1.13 ± 0.1 | 1.04 ± 0.034 | 1.09 ± 0.067 | 1.14 ± 0.12 | 1.15 ± 0.088 | 1.3 ± 0.1
3 | K7EPJ5 and related entries (UniProt O60291) | 1.2 ± 0.14 | 1.12 ± 0.11 | 1.12 ± 0.22 | 1.12 ± 0.039 | 1.05 ± 0.095 | 1.11 ± 0.044 | 1.13 ± 0.026 | 0.885 ± 0.23
4 | UniProt H3BQF6 | 1 ± 0.0047 | 0.993 ± 0.0027 | 1 ± 0.087 | 0.935 ± 0.045 | 0.943 ± 0.038 | 0.955 ± 0.057 | 0.958 ± 0.065 | 0.902 ± 0.085
5 | H0Y2S9 and related entries (UniProt Q6WCQ1) | 0.988 ± 0.14 | 1.08 ± 0.19 | 1.14 ± 0.15 | 1.15 ± 0.26 | 1.13 ± 0.18 | 1.21 ± 0.18 | 1.3 ± 0.23 | 1.29 ± 0.24
